This is one part of the list.

Amino acid sequences for entries named in this document (tags omitted). A change or cut given only in a name is not applied to a line headed by its entry.
UniProt Q96MF7: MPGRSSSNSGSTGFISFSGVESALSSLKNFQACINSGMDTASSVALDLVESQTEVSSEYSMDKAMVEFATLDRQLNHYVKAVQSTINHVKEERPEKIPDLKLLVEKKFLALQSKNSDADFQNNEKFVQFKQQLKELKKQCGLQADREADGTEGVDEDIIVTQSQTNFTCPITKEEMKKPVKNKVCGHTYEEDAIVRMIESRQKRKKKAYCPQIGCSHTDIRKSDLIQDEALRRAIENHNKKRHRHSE
UniProt Q56VL3: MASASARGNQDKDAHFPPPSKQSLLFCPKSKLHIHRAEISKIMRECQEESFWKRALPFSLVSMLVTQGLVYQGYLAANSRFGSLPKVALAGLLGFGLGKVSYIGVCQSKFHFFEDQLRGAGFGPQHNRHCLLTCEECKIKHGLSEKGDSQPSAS
UniProt Q96P11: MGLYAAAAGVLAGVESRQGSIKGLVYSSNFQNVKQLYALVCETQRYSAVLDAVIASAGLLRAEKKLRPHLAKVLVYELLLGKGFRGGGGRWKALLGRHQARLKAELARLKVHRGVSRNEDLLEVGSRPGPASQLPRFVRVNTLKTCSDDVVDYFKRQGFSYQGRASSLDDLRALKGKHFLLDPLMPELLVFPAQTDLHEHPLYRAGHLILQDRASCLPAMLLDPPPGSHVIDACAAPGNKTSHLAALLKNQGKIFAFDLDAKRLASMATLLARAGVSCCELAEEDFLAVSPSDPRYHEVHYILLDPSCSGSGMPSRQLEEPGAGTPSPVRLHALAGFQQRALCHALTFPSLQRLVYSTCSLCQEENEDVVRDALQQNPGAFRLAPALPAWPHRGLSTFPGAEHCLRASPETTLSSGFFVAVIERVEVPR
UniProt O14737: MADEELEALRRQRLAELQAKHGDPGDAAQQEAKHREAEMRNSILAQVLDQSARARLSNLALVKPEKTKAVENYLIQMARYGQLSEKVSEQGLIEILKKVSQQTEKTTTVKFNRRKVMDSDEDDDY
UniProt Q02818: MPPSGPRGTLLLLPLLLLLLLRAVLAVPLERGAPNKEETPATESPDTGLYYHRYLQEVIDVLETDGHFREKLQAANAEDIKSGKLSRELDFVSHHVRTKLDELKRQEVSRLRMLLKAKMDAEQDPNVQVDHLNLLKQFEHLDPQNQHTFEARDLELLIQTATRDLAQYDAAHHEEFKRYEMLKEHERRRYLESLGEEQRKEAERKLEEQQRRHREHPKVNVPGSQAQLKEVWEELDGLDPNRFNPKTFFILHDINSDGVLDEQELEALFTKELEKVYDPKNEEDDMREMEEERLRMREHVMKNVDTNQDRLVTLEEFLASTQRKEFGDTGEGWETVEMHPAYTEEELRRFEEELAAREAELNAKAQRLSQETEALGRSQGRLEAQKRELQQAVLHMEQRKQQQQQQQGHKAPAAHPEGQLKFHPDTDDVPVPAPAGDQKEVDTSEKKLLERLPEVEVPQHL
UniProt Q9BZF1: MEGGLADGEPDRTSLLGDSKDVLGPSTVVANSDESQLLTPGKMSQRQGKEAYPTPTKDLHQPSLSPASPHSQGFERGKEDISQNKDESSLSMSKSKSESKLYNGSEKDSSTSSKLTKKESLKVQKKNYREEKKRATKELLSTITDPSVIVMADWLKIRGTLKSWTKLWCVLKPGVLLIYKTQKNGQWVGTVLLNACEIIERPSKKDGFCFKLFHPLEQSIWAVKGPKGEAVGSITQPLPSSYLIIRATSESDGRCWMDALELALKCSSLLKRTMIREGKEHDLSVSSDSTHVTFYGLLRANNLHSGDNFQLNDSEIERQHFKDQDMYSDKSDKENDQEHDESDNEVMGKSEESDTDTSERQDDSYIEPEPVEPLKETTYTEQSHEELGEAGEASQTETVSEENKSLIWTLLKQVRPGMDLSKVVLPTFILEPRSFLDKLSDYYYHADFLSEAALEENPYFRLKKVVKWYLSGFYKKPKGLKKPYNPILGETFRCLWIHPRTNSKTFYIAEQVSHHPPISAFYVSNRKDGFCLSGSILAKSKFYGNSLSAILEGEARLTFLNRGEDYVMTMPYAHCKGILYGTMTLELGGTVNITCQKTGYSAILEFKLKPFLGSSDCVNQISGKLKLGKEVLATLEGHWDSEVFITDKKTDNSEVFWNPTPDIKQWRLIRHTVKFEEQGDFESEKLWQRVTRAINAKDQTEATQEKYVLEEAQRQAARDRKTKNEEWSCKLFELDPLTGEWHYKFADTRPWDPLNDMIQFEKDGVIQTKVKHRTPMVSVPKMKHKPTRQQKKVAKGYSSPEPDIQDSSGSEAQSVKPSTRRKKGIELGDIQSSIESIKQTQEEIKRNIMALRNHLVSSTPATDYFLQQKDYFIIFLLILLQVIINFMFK
UniProt Q16822, whole entry: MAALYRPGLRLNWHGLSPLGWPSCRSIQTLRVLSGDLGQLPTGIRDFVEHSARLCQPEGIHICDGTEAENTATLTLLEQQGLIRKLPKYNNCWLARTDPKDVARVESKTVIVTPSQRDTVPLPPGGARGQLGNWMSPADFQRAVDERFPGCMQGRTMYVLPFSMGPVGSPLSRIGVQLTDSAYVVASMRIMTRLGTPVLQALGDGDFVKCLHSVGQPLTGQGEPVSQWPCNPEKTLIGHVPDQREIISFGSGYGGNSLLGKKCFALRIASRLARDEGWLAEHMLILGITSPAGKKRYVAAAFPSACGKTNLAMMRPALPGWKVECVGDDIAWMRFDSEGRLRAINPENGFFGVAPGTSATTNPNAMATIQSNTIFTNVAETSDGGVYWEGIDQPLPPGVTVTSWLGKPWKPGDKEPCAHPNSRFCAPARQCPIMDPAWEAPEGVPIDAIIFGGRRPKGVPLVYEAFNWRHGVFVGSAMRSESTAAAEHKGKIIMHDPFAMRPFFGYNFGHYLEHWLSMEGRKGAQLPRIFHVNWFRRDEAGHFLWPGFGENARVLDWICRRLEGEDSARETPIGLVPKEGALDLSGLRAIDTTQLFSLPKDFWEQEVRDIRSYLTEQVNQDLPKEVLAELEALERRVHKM
UniProt Q9H2J4: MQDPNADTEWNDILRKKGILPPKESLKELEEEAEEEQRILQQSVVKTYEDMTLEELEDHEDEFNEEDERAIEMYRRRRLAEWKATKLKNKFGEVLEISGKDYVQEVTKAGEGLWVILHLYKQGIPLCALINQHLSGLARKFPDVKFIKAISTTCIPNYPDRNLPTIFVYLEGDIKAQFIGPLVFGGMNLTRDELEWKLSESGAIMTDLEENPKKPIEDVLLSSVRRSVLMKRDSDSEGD
UniProt Q8TEA1: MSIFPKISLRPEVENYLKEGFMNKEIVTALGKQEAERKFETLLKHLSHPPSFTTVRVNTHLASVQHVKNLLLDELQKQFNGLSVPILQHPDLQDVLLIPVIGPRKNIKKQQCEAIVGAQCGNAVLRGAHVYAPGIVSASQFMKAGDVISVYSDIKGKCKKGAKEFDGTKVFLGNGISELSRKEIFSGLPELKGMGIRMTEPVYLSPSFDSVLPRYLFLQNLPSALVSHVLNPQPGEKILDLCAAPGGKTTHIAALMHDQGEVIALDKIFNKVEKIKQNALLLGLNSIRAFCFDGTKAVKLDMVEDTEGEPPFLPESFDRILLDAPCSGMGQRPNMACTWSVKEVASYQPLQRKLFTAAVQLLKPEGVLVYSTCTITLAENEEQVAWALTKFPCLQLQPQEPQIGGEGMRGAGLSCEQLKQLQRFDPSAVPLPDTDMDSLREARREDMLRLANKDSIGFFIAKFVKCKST
UniProt A8MXV4: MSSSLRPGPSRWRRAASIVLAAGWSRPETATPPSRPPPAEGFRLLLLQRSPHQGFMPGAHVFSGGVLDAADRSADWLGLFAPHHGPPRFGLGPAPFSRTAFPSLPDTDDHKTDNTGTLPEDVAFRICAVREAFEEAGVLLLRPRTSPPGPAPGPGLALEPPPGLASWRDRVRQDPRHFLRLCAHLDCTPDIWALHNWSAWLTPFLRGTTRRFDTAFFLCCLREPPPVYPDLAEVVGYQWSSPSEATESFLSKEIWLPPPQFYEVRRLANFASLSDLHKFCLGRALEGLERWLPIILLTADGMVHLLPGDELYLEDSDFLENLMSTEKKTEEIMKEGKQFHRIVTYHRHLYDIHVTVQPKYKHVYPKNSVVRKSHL
UniProt P30101, whole entry: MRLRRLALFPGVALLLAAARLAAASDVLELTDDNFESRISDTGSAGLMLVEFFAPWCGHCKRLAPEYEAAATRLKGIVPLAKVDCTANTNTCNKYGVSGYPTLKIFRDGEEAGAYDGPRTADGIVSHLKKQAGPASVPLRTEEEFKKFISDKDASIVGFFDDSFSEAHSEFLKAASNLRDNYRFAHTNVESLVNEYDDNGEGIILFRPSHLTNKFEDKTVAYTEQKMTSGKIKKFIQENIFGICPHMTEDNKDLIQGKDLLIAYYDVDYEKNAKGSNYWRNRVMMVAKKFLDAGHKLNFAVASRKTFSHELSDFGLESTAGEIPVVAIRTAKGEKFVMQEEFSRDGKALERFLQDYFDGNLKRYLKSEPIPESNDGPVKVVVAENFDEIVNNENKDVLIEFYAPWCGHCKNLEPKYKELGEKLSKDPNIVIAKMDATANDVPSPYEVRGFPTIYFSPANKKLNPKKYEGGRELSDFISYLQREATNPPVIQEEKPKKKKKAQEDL
UniProt Q13177, whole entry: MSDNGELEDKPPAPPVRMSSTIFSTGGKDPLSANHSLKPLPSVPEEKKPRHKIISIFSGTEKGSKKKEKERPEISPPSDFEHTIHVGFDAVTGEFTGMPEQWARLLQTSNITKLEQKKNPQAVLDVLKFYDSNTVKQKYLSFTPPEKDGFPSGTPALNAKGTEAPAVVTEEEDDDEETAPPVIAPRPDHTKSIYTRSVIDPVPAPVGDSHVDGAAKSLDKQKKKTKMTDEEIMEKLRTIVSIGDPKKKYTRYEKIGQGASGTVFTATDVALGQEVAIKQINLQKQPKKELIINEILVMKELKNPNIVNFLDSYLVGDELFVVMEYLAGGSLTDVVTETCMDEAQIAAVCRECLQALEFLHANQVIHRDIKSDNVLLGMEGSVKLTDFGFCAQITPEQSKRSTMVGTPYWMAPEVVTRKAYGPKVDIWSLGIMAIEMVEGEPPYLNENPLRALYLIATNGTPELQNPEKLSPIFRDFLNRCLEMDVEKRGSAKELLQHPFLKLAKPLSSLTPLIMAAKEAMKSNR
UniProt P17858: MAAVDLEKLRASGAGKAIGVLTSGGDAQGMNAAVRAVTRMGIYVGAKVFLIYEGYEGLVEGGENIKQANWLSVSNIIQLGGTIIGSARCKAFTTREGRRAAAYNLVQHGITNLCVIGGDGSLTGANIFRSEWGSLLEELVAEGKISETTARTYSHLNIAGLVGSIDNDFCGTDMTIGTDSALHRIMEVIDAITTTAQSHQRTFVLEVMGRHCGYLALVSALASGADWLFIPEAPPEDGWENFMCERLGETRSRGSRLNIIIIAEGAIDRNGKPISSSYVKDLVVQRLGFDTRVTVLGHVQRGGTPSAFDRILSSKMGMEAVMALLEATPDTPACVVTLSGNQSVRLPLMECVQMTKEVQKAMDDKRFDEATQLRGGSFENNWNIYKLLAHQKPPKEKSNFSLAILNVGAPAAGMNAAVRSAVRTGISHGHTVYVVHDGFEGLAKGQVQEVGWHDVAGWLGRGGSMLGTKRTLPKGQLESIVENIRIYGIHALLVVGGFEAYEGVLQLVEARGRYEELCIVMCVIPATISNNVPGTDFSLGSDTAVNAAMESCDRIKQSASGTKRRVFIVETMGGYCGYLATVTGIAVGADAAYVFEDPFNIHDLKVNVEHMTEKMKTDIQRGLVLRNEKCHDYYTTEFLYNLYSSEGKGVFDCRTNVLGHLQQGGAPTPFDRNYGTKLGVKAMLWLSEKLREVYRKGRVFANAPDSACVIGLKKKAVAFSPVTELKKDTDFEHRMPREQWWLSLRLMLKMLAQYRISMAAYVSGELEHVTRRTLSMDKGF
UniProt Q9HBE1: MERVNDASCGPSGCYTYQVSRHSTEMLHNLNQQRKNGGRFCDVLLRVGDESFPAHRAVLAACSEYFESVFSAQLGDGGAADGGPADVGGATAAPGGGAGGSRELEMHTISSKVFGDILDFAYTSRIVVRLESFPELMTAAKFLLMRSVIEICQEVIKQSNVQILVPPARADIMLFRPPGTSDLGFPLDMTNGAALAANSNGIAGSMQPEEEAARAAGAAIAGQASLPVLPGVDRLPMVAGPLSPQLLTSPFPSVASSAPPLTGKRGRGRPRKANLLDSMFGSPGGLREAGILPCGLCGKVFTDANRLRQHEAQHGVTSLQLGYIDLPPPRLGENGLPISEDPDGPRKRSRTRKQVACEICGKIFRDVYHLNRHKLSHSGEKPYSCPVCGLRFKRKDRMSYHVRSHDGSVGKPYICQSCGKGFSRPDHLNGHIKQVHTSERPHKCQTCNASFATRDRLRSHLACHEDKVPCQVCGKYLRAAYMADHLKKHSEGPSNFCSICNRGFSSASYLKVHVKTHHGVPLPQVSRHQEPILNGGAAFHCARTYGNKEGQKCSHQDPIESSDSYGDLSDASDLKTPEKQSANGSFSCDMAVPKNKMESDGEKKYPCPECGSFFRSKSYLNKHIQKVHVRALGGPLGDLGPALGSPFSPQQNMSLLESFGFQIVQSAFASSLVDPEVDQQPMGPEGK

Compound in the experiment: COc1ccc(Cn2ccc3ccc(C(=O)NO)cc32)cc1
The experiment can be described thus: dose-dependent thermal stabilisation call (2D-TPP, DLPTP, 10% FDR) (binary (1 = stabilised)); higher = stabilised by the compound. The note with it: system: HL-60 intact cells; concentration range 0.04-10 µM.
Turning to NSMCE2 (UniProt Q96MF7), the “dose-dependent thermal stabilisation call” value is inactive: 0.
The result for NUDT6 (UniProt P53370) reads inactive: 0.
For the target OCIAD2 (UniProt Q56VL3), the “dose-dependent thermal stabilisation call” value was inactive: 0.
For OS9 (UniProt Q13438), the “dose-dependent thermal stabilisation call” value is inactive: 0.
Consider NSFL1C (UniProt Q9UNZ2), for which the “dose-dependent thermal stabilisation call” value was inactive: 0.
The result for NT5DC1 (UniProt Q5TFE4) reads inactive: 0; that for PANK2 (UniProt Q9BZ23), inactive: 0; that for PARL (UniProt Q9H300), inactive: 0.
For the target PEBP1 (UniProt P30086), the “dose-dependent thermal stabilisation call” value is inactive: 0.
The result for PARP14 (UniProt Q460N5) reads inactive: 0; that for PFDN6 (UniProt O15212), inactive: 0; that for NSUN5 (UniProt Q96P11), inactive: 0.
Next, ODC1 (UniProt P11926): inactive: 0.
As to NT5C2 (UniProt P49902), the “dose-dependent thermal stabilisation call” value is inactive: 0.
Next, PDCD5 (UniProt O14737): active: 1; NUMA1 (UniProt Q14980): inactive: 0; NRBF2 (UniProt Q96F24): inactive: 0.
Next, NUCB1 (UniProt Q02818): inactive: 0.
Next, PDE12 (UniProt Q6L8Q7): inactive: 0; PANK4 (UniProt Q9NVE7): inactive: 0.
With OSBPL8 (UniProt Q9BZF1), the “dose-dependent thermal stabilisation call” value is inactive: 0.
In the case of PCK2 (UniProt Q16822), the “dose-dependent thermal stabilisation call” value was inactive: 0.
The result for PDCL3 (UniProt Q9H2J4) reads inactive: 0.
Next, NSUN6 (UniProt Q8TEA1): inactive: 0; P2RY2 (UniProt P41231): inactive: 0.
Next, PCBP2 (UniProt Q15366): inactive: 0; NUDT19 (UniProt A8MXV4): inactive: 0; NUP54 (UniProt Q7Z3B4): inactive: 0.
Regarding PDIA3 (UniProt P30101), the “dose-dependent thermal stabilisation call” value was inactive: 0.
Next, PAK2 (UniProt Q13177): inactive: 0.
The result for PFKL (UniProt P17858) reads inactive: 0; that for PCF11 (UniProt O94913), inactive: 0.
Next, OSBPL6 (UniProt Q9BZF3): inactive: 0; PCTK1 (UniProt Q00536): inactive: 0.
With PATZ1 (UniProt Q9HBE1), the “dose-dependent thermal stabilisation call” value was inactive: 0.
The result for PDPR (UniProt Q8NCN5) reads inactive: 0.
Next, PAG1 (UniProt Q9NWQ8): inactive: 0.

The values above are taken from the supplement of paper PMC7666118.
